# Measured values from PubChem BioAssay AID493014 (National Center for Advancing Translational Sciences (NCATS), 2011).
# Hit rate of the full screen: of about 340,000 compounds, about 170 (0.05%) were called active. Inconclusive results, whose numbers are uncertain, are shown with a selection of clear calls. Calls come from the whole dose curve; as a rule, active = well fitted inhibition curve with a large enough effect in the signal ratio, with a control signal flat (not every such curve was filed as active); inconclusive = small, poorly fitted or top-dose-only effect, or effect the other way, or a change in a side signal; inactive = flat fitted curve, though single readings scatter; the % refers to the signal ratio. Potencies beside an inconclusive call are fits to weak or partial responses and may not hold up.
# Experiment: qHTS Assay to Find Inhibitors of Chronic Active B-Cell Receptor Signaling;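 for activity change, negative = inhibition: plate controls were basal doxycycline-induced cells for no effect and cells given 10 µM MG132 for full effect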
# Details: ABC-DLBCL IkBa-CBG/CBR reporter, luminescence ratio (green luciferase fused to IkBa over red control in TMD8 lymphoma cells), 4 h; activity change, negative = inhibition: at 46.1 µM (top of the series) unless noted
# Summary of the method: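 Cell line TMD8 (human ABC DLBCL), stably expressing tet-inducible CBG68-IkBa fusion and CBR; IMDM/0.5% FBS; cpd up to 46 uM; dox induction, 4 h, 37C/5% CO2; dual luminescence; green/red ratio; MG132 control.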
# Potency is the fitted concentration of half-maximal effect.
Compound,Potency,"activity change, negative = inhibition"
Cc1csc(NC(=O)CSc2nnc(-c3ccccc3)o2)n1,"inconclusive: 5.8 µM [falling, single point]",–
N#Cc1ncc(Cc2ccccc2)nc1C#N,–,inconclusive: -1.09%
O=C(COc1ccccc1[N+](=O)[O-])Nc1cccc(S(=O)(=O)N2CCCC2)c1,"inconclusive: 20.6 µM [falling, partial curve]",–
Cc1ccccc1-n1c(=O)[nH]c(=O)c2c(N)c(C(=O)c3ccc(Cl)cc3)sc21,–,inconclusive: -0.506%
Cc1ccsc1C(=O)N/N=C/c1ccc([N+](=O)[O-])cc1,"inconclusive: 4.61 µM [falling, partial curve]",–
O=C(CNc1cccc(F)c1)N1CCc2ccccc2C1,"inconclusive: 35.5 µM [rising, single point]",–
O=C(NC(=S)NCc1ccccc1Cl)c1cccs1,–,inactive: 5.61%
Cc1cc(NC(=O)CCCN2C(=O)/C(=C\c3cccs3)SC2=S)no1,"inconclusive: 18.4 µM [falling, partial curve]",–
c1coc(CN(Cc2ccco2)c2ncnc3c2oc2ccccc23)c1,–,inconclusive: 1.44%
Brc1ccccc1OCCOCCOc1cccc2cccnc12,–,inconclusive: -21.2%
COc1cc(C(=O)O/N=C(\N)c2cccc([N+](=O)[O-])c2)cc(OC)c1OC,–,inconclusive: 1.64%
COc1ccc(NC(=O)C2CC(=O)N/C(=N/N=C/c3ccccc3)S2)cc1 (stereo not given),–,inactive: -1.2%
N#CC1(c2ccccc2)CCC(=NNS(=O)(=O)c2ccccc2)CC1 (stereo not given),–,inconclusive: 0.0751%
CC(C)n1cc(NC(=O)C2CC(c3cccc(Br)c3)=NO2)cn1 (stereo not given),"inconclusive: 2.91 µM [falling, partial curve]",–
c1ccc2sc(NN=C3CCCCCC3)nc2c1,"inconclusive: 22.4 µM [falling, partial curve]",–
CC(Sc1nc2ncc(Cl)cc2[nH]1)C(=O)Nc1ccc(C(N)=O)cc1 (stereo not given),–,inconclusive: 11.9%
Cc1cc(C(=O)N/N=C/c2ccc(N(C)C)o2)cs1,–,inconclusive: -12.6%
O=C(Nc1cccc(Cl)c1N1CCCC1)c1ccc([N+](=O)[O-])o1,–,inactive: 0.944%
CC(=O)CSc1nsc(SCC(C)=O)c1C#N,–,inactive: 7.37%
O=C(Nc1cccc([N+](=O)[O-])c1)C1C2CC/C=C\CCC21 (stereo not given),–,inconclusive: 7.01%
Cc1cccc(-c2nc(CN3CCCC(C(=O)NC4CCC(C)CC4)C3)c(C)o2)c1 (stereo not given),–,inconclusive: 26.6%
CCC(=O)N1CCc2cc(S(=O)(=O)CCC(=O)N3CCN(c4ccc(C(C)=O)cc4)CC3)ccc21,–,inactive: -3%
CN(C)CCN(Cc1cc2cc3c(cc2[nH]c1=O)OCO3)C(=S)NCC1CCCO1 (stereo not given),–,inactive: 14.6%
Cc1ccnc(N=Cc2nc(-c3ccccc3Br)oc2O)c1,"inconclusive: 5.62 µM [rising, single point]",–
CS(=O)(=O)c1ccc(Cl)c(NC(=O)CCN2C(=O)NC3(CCCC3)C2=O)c1,–,inconclusive: 9.07%
Cc1ccc(C2=NN(CC(=O)NCCc3ccc(Cl)cc3)C(=O)CC2)cc1,"inconclusive: 11.2 µM [falling, single point]",–
O=[N+]([O-])c1ccc(Oc2cccc3cccnc23)c(Cl)c1,–,inconclusive: 1.08%

Compound,Potency,"activity change, negative = inhibition"
COCCCNc1nc(N)c([N+](=O)[O-])c(N2CCCCCC2)n1,–,inconclusive: -0.849%
CCc1c(C)nc2ncnn2c1N1CCC(C(=O)Nc2ccc(C)cc2)CC1,–,inactive: -2.49%
Cc1ccc(Sc2nnc(-c3ccccc3)cc2C#N)cc1,–,inactive: 3.63%
CCOC(=O)C1=C(C)NC(C)=C(C(=O)OCC)C1c1ccc(O)cc1,"inconclusive: 18.4 µM [falling, partial curve]",–
O=C(Nc1cc(F)ccc1F)c1cc2nc(-c3ccco3)cc(C(F)(F)Cl)n2n1,"inconclusive: 17.8 µM [falling, single point]",–
CC(Oc1ccccc1)C(=O)N1CCCc2ccccc21 (stereo not given),–,inconclusive: 8.24%
COc1ccccc1OCC(=O)/C=C1/N(C)c2ccccc2C1(C)C,–,inconclusive: -4.54%
COc1cccc(-c2nn(-c3ccccc3)cc2C(=O)O)c1,–,inconclusive: 3.84%
COc1cc(/C=N/NC(N)=O)ccc1OC(=O)c1ccc(C)cc1,–,inactive: 1.84%
O=C(CN1C(=O)c2ccccc2C1=O)Nc1ccccc1N1CCOCC1,–,inconclusive: 12%
Nc1ccc2nc(CN3CCOCC3)[nH]c2c1,–,inconclusive: 4.72%
Cc1ccc(-c2nc(CNC(=O)c3cc(C)on3)cs2)cc1,–,inconclusive: -13.7%
COCCN(CCOC)C(=O)C1CCCN(S(=O)(=O)c2ccc(NC(=O)OC)cc2)C1 (stereo not given),"inconclusive: 2.82 µM [falling, full curve, poor fit]",–
Cc1cc(C)c2cc(C(=O)N3CCc4ccccc4C3)[nH]c2c1,–,inconclusive: -8.65%
O=c1ccc(-c2nc3cc(Cl)ccc3n2Cc2ccccc2)c[nH]1,"inconclusive: 7.08 µM [falling, full curve, poor fit]",–
Cc1ccc(C)c(CSC2=NCCN2C(=O)Cc2ccc([N+](=O)[O-])cc2)c1,–,inconclusive: -2.25%
O=C(c1ccccc1F)N(Cc1cccs1)C1CCS(=O)(=O)C1 (stereo not given),"inconclusive: 35.5 µM [falling, single point]",–
CCCn1c(SCC(=O)Nc2cccc(S(=O)(=O)NC3=NCCCCC3)c2)nc2ccccc2c1=O,–,inconclusive: -2.07%
CN(C)c1cccc(C(=O)Nc2ccc3nc4n(c(=O)c3c2)CCCCC4)c1,–,inconclusive: -16.5%
Oc1ccccc1C1=NN(c2ccccc2)C(c2ccccc2)C1 (stereo not given),"inconclusive: 35.5 µM [falling, partial curve, poor fit]",–
C=CCNC(=O)c1ccc(OC)cc1,–,inconclusive: 10.2%
Cc1ccc(NC(=O)CCC(=O)c2cccs2)c(Br)c1,–,inconclusive: 3.73%
O=C(O)C1CC(=O)N(CCc2ccccc2)C1 (stereo not given),–,inconclusive: 5.87%
CCCn1nnc(NC(=O)c2ccc(Br)o2)n1,–,inconclusive: 23.6%
CCOC(=O)c1c(NC(=O)/C=C\C(=O)O)sc(C)c1-c1ccccc1,–,inconclusive: -2.8%
CCc1ccc(NC(=O)c2cc(-c3ccc(F)cc3)on2)cc1,"inconclusive: 14.1 µM [falling, partial curve, poor fit]",–
CC1=CCC(C(=O)O)(C(=O)N/N=C/c2cccs2)C(c2ccc(Cl)cc2)C1 (stereo not given),–,inconclusive: 22.1%

Compound,Potency,"activity change, negative = inhibition"
O=C(OCn1ncc(Cl)c(Cl)c1=O)c1ccccc1Cl,"inconclusive: 31.6 µM [rising, single point]",–
COc1cc(C(=O)NCC(=O)N/N=C/c2c(C)[nH]c3ccccc23)cc(OC)c1OC,"inconclusive: 17.8 µM [falling, partial curve, poor fit]",–
CC(C)(CCl)C(=O)Nc1ccc(OC(F)(F)F)cc1,–,inconclusive: 11.9%
CCOc1cc(N2CCOCC2)c(OCC)cc1NC(C)C(=O)N1CCC(C)CC1 (stereo not given),–,inactive: 0.162%
CCOC(=O)/C(C#N)=N/Nc1c(C)n(C)n(-c2ccccc2)c1=O,–,inactive: -1.08%
CC(C)(CN1CCCC1)NS(=O)(=O)c1ccc(Cl)cc1,–,inactive: 0.891%
Cc1nc(-c2ccc(C)c(S(=O)(=O)N3CCC(C(=O)Nc4ccc(Cl)cc4)CC3)c2)no1,"inconclusive: 11.2 µM [falling, partial curve]",–
Cc1nnc(SCc2ccc(Cl)c(Cl)c2)s1,–,inactive: 3.98%
O=C(Nc1ccccc1N1CCN(c2ccccc2)CC1)c1ccccc1,–,inconclusive: -40.7%
O=C1CSC2(N1)C1CC3CC(C1)CC2C3 (stereo not given),–,inconclusive: 6.66%
CCCCCNC(=O)c1ccc2c(c1)nc(C)n2-c1cccc(C)c1,–,inconclusive: -3.62%
COc1ccccc1-n1cnnc1SCC(=O)N1CCOCC1,"inconclusive: 6.31 µM [falling, partial curve]",–
CCOc1ccc(CN2CCNC(=O)C2CC(=O)NCc2ccccn2)cc1 (stereo not given),–,inconclusive: 1.66%
Clc1ccccc1CN1CCN(/N=C/C=C\c2ccco2)CC1,–,inconclusive: -1.07%
COc1cc2c(cc1OC)C(c1cc(Br)c(OC)c(OC)c1)CC(=O)N2 (stereo not given),"inconclusive: 25.1 µM [falling, single point]",–
CCN(CC)S(=O)(=O)c1ccc(NC2CCN(Cc3ccccc3)CC2)nc1,–,inactive: 4.75%
CCC(=O)Nc1cccc(-c2cc3ccccc3oc2=O)c1,–,inconclusive: -15%
CC(C)OC(=O)c1cc2c(=O)[nH]c(C(Cl)(Cl)Cl)nc2o1,"inconclusive: 35.5 µM [rising, single point]",–
Cc1[nH]c(=S)c(C#N)c(C)c1C(=O)Nc1ccccc1,–,inactive: 2%
Cc1c(/C=N/NC(=O)CNc2ccccc2)c2ccccn2c1C(=O)c1ccccc1,–,inconclusive: 14.3%
O=C1/C(=C/c2ccccc2F)SC(=S)N1CC(=O)N1CCCCC1c1cccnc1 (stereo not given),"inconclusive: 22.4 µM [falling, single point]",–
CCn1c(C)nc2cc(C(=O)NNS(=O)(=O)c3ccccc3F)ccc21,–,inconclusive: 0.546%
O=C(N/N=C/c1ccc([N+](=O)[O-])o1)c1cc(-c2ccc(-c3ccccc3)cc2)nc2ccccc12,–,inconclusive: -14.4%
Cc1[nH]c2ccc(C(=O)NC3CCC(C)CC3)cc2c1C (stereo not given),"inconclusive: 22.4 µM [falling, single point]",–
Cc1ccc(C)c(CN2C(=O)c3ccccc3S(=O)c3ccc(C(=O)N4CCN(c5ccccn5)CC4)cc32)c1 (stereo not given),–,inconclusive: -0.732%
COc1ccc(Cn2c(=O)sc3ccccc32)cc1OC,"inconclusive: 20.6 µM [falling, partial curve, poor fit]",–
